In the supplement of paper PMC9015667:
Counter-ions that a name gives are not always drawn. The list shows a part of the results. Most values come without repeats; read them as rough.

How the values were obtained:
Test in all cases: reduction in cell viability relative to untreated/vehicle; higher = more growth inhibition
Details in all cases: 200 nM; 72 h
M229P = test system: M229P (parental melanoma line)
M229R = test system: M229R (matched melanoma line resistant to BRAF inhibitors)
M238P = test system: M238P (parental melanoma line)
M238R = test system: M238R (matched melanoma line resistant to BRAF inhibitors)
M249P = test system: M249P (parental melanoma line)
M249R = test system: M249R (matched melanoma line resistant to BRAF inhibitors)
UACC62P = test system: UACC62P (parental melanoma line)
UACC62R = test system: UACC62R (matched melanoma line resistant to BRAF inhibitors)

Row | SMILES | reduction in cell viability (M229P) | reduction in cell viability (M229R) | reduction in cell viability (M238P) | reduction in cell viability (M238R) | reduction in cell viability (M249P) | reduction in cell viability (M249R) | reduction in cell viability (UACC62P) | reduction in cell viability (UACC62R)
1 | COc1ccc(C[C@@H]2c3cc(OC)c(OC)cc3CC[N@+]2(C)CCC(=O)OCCCCCOC(=O)CC[N@@+]2(C)CCc3cc(OC)c(OC)cc3[C@H]2Cc2ccc(OC)c(OC)c2)cc1OC [Cisatracurium besylate] | < 0% | < 0% | < 0% | < 0% | < 0% | < 0% | < 0% | < 0%
2 | C[C@H]1C[C@H]2[C@@H]3CCC4=CC(=O)C=C[C@]4(C)[C@@]3(F)[C@@H](O)C[C@]2(C)[C@@]1(O)C(=O)CO [Betamethasone] | < 0% | < 0% | < 0% | < 0% | < 0% | < 0% | < 0% | < 0%
3 | O=C(O)c1ccc(Nc2ncc3c(n2)-c2ccc(Cl)cc2C(c2c(F)cccc2F)=NC3)cc1 | < 0% | 7.63% | < 0% | < 0% | < 0% | < 0% | 16.2% | 24.9%
4 | NC(=O)c1ncn([C@@H]2O[C@H](CO)[C@@H](O)[C@H]2O)c1N [Acadesine] | < 0% | < 0% | < 0% | < 0% | < 0% | < 0% | 0.04% | < 0%
5 | Cc1noc(NS(=O)(=O)c2ccc(N)cc2)c1C [Sulfafurazole] | < 0% | < 0% | < 0% | < 0% | < 0% | 13.9% | 0.27% | < 0%
6 | CC1Cc2ccccc2N1NC(=O)c1ccc(Cl)c(S(N)(=O)=O)c1 (stereo not given) [Indapamide] | < 0% | < 0% | < 0% | < 0% | < 0% | < 0% | < 0% | < 0%
7 | Cc1cccc(Nc2nc(-c3ccncc3)cs2)c1 | < 0% | 25.2% | < 0% | < 0% | < 0% | 8.58% | 3.83% | < 0%
8 | C[N+](C)(C)CC(=O)O [Betaine hydrochloride] | < 0% | < 0% | < 0% | < 0% | < 0% | 0.67% | < 0% | < 0%
9 | Cn1cc(-c2ccc3nnc(C(F)(F)c4ccc5ncccc5c4)n3n2)cn1 | < 0% | < 0% | < 0% | < 0% | < 0% | < 0% | < 0% | < 0%
10 | Cc1cccc(-c2nn(C(=S)Nc3ccccc3)cc2-c2ccnc3ccccc23)n1 | < 0% | < 0% | < 0% | 9.04% | < 0% | < 0% | < 0% | < 0%
11 | CCCCCCCCc1ccc(CCC(N)(CO)CO)cc1 [Fingolimod hydrochloride] | < 0% | < 0% | < 0% | < 0% | < 0% | < 0% | < 0% | < 0%
12 | Nc1cccc(-c2cc3c(Oc4cccc(O)c4)ncnc3[nH]2)c1 | < 0% | < 0% | < 0% | < 0% | < 0% | < 0% | < 0% | < 0%
13 | Cn1nnc2c(C(N)=O)ncn2c1=O [Temozolomide] | < 0% | < 0% | < 0% | < 0% | < 0% | < 0% | < 0% | < 0%
14 | Cc1ccc([C@@H]2O[C@H](CO)[C@@H](O)[C@H](O)[C@H]2O)cc1Cc1ccc(-c2ccc(F)cc2)s1 [Canagliflozin] | < 0% | < 0% | < 0% | < 0% | < 0% | < 0% | < 0% | < 0%
15 | CC(C)(C)NC(=O)[C@@H]1CN(Cc2cccnc2)CCN1C[C@@H](O)C[C@@H](Cc1ccccc1)C(=O)N[C@H]1c2ccccc2C[C@H]1O [Indinavir sulfate] | < 0% | < 0% | < 0% | < 0% | < 0% | 1.15% | < 0% | < 0%
16 | Clc1ccc(C(c2ccc(Cl)cc2)[n+]2ccn(CC(OCc3ccc(Cl)cc3Cl)c3ccc(Cl)cc3Cl)c2)cc1 (stereo not given) [Calmidazolium chloride] | < 0% | < 0% | < 0% | < 0% | < 0% | < 0% | < 0% | < 0%
17 | C=CC[C@@H]1/C=C(\C)C[C@H](C)C[C@H](OC)[C@H]2O[C@@](O)(C(=O)C(=O)N3CCCC[C@H]3C(=O)O[C@H](/C(C)=C/[C@@H]3CC[C@@H](O)[C@H](OC)C3)[C@H](C)[C@@H](O)CC1=O)[C@H](C)C[C@@H]2OC | < 0% | < 0% | < 0% | 0.84% | < 0% | < 0% | < 0% | < 0%
18 | O=C(O)/C=C/c1ccc(Cn2ccnc2)cc1 [Ozagrel hydrochloride] | < 0% | < 0% | < 0% | < 0% | < 0% | < 0% | 1.24% | < 0%
19 | CCn1cc(C(=O)O)c(=O)c2cc(F)c(N3CCNCC3)cc21 [Norfloxacin] | < 0% | < 0% | < 0% | < 0% | < 0% | < 0% | < 0% | < 0%
20 | CC/C(=C(/CC)c1ccc(O)cc1)c1ccc(O)cc1 [Diethylstilbestrol] | < 0% | 5.07% | < 0% | < 0% | < 0% | < 0% | < 0% | < 0%

Quoted from the listing:
reduction in cell viability (M229P), Cn1cc(-c2ccc3nnc(C(F)(F)c4ccc5ncccc5c4)n3n2)cn1 is entered as < 0%
reduction in cell viability (M249R), CC/C(=C(/CC)c1ccc(O)cc1)c1ccc(O)cc1 [Diethylstilbestrol] is entered as < 0%
